{"source": "patent US20260144890A1", "about": "“ANTIBODY DRUG CONJUGATE COMPRISING NMT INHIBITOR CONJUGATED TO AN ANTIBODY” (MyricX Pharma Limited, priority 2024, published 2026)", "assay_type_in_all_cases": "cell-based", "key": {"[1]": {"system": "gastric cancer organoid GA6877B", "test": "Gastric cancer organoid viability (CTG 3D), GA6877B", "experimental": "(§1) Day −1: Patient derived gastric cancer organoids (PDXOs) are sheared to uniform sizes and the required number of organoids are combined 1:1 with 50% Matrigel to produce the right size of the organoids to perform the screen.\n(§2) Day 0: Organoid seeding • 1. Collect organoids from each well by adding 20 μl 100× Dispase solution to each well from a 6-well plate, which contains 2 ml of organoid medium. • 2. Put the plates back in the incubator, 37° C. for 30 min. • 3. Collect organoids from all wells and pipet through a pre-wet 100 μm filter into a 50 ml plastic tube. • 4. Once all wells have been filtered over 100 μm filters, filter the flow though over a pre-wet 20 μm filter. • 5. […]\n(§3) • 10. Place screening plates back into the incubator before adding compounds and day 0 reading. […] One is for day 0 reading (TO) and the other for reading at the end point.\n(§4) Day 0: Compounds treatment and Day 0 baseline CTG (cell titre glo) reading • 11. […] For day 0 reading plate, add 40 μL of CTG 3D per well and read luminescent signal on Envision plate reader.\n(§5) Day 6: Endpoint CTG reading. • 1. Read assay plates for luminescent CTG signal at the end of the assays: add 40 μL of CTG 3D per well by Multidrop dispenser, mix the contents for 5 min on the plate shaker, and incubate the plates for 30 min at room temperature in dark. Read luminescent signal on Envision plate reader. […]"}, "[2]": {"system": "gastric cancer organoid GA0091B", "test": "Gastric cancer organoid viability (CTG 3D), GA0091B", "experimental": "as §1, §2, §3, §4, §5"}, "[3]": {"system": "gastric cancer organoid GA2109B", "test": "Gastric cancer organoid viability (CTG 3D), GA2109B", "experimental": "as §1, §2, §3, §4, §5"}, "[4]": {"system": "gastric cancer organoid GA6891B", "test": "Gastric cancer organoid viability (CTG 3D), GA6891B", "experimental": "as §1, §2, §3, §4, §5"}, "[5]": {"system": "gastric cancer organoid GA0087B", "test": "Gastric cancer organoid viability (CTG 3D), GA0087B", "experimental": "as §1, §2, §3, §4, §5"}, "[6]": {"system": "gastric cancer organoid GA2434B", "test": "Gastric cancer organoid viability (CTG 3D), GA2434B", "experimental": "as §1, §2, §3, §4, §5"}, "[7]": {"system": "gastric cancer organoid GA3102B", "test": "Gastric cancer organoid viability (CTG 3D), GA3102B", "experimental": "as §1, §2, §3, §4, §5"}, "[8]": {"system": "gastric cancer organoid GA6815B", "test": "Gastric cancer organoid viability (CTG 3D), GA6815B", "experimental": "as §1, §2, §3, §4, §5"}, "[9]": {"system": "gastric cancer organoid GA0119B", "test": "Gastric cancer organoid viability (CTG 3D), GA0119B", "experimental": "as §1, §2, §3, §4, §5"}, "[10]": {"system": "gastric cancer organoid GA3055B", "test": "Gastric cancer organoid viability (CTG 3D), GA3055B", "experimental": "as §1, §2, §3, §4, §5"}, "[11]": {"system": "gastric cancer organoid GA0429B", "test": "Gastric cancer organoid viability (CTG 3D), GA0429B", "experimental": "as §1, §2, §3, §4, §5"}, "[12]": {"system": "gastric cancer organoid GA6866B", "test": "Gastric cancer organoid viability (CTG 3D), GA6866B", "experimental": "as §1, §2, §3, §4, §5"}, "[13]": {"system": "gastric cancer organoid GA0060B", "test": "Gastric cancer organoid viability (CTG 3D), GA0060B", "experimental": "as §1, §2, §3, §4, §5"}, "[14]": {"system": "gastric cancer organoid GA0098B", "test": "Gastric cancer organoid viability (CTG 3D), GA0098B", "experimental": "as §1, §2, §3, §4, §5"}, "[15]": {"system": "gastric cancer organoid GA6894B", "test": "Gastric cancer organoid viability (CTG 3D), GA6894B", "experimental": "as §1, §2, §3, §4, §5"}, "[16]": {"system": "gastric cancer organoid GA6833B", "test": "Gastric cancer organoid viability (CTG 3D), GA6833B", "experimental": "as §1, §2, §3, §4, §5"}}, "data": [{"smiles": "CN[C@@H]1C[C@H]2O[C@@](C)([C@@H]1OC)n1c3ccccc3c3c4c(c5c6ccccc6n2c5c31)C(=O)NC4", "note": "[Staurosporine]", "values": [{"measurement": "Max_Inhibition", "setting": "[1]", "result": 99.99, "unit": "%"}, {"measurement": "Max_Inhibition", "setting": "[2]", "result": 99.29, "unit": "%"}, {"measurement": "Max_Inhibition", "setting": "[3]", "result": 99.99, "unit": "%"}, {"measurement": "Max_Inhibition", "setting": "[4]", "result": 99.57, "unit": "%"}, {"measurement": "Max_Inhibition", "setting": "[5]", "result": 98.04, "unit": "%"}, {"measurement": "Max_Inhibition", "setting": "[6]", "result": 99.86, "unit": "%"}, {"measurement": "Max_Inhibition", "setting": "[7]", "result": 99.71, "unit": "%"}, {"measurement": "Max_Inhibition", "setting": "[8]", "result": 99.01, "unit": "%"}, {"measurement": "Max_Inhibition", "setting": "[9]", "result": 99.89, "unit": "%"}, {"measurement": "Max_Inhibition", "setting": "[10]", "result": 98.42, "unit": "%"}, {"measurement": "Max_Inhibition", "setting": "[11]", "result": 99.92, "unit": "%"}, {"measurement": "Max_Inhibition", "setting": "[12]", "result": 99.97, "unit": "%"}, {"measurement": "Max_Inhibition", "setting": "[13]", "result": 99.99, "unit": "%"}, {"measurement": "Max_Inhibition", "setting": "[14]", "result": 99.46, "unit": "%"}, {"measurement": "Max_Inhibition", "setting": "[15]", "result": 100.01, "unit": "%"}, {"measurement": "Max_Inhibition", "setting": "[16]", "result": 100.02, "unit": "%"}]}]}
